Experimental data taken from US20250018040A1 (UNITED STATES OF AMERICA AS REPRESENTED BY THE SECRETARY …, published 2025).
Changes are numbered by the printed parent chain.

Protein sequences, listed by entry. Tags and fused reporters are not part of them. Chains listed by the source or under a name are the forms on record and can include a tag or linker.
UniProt Q13421, other isoform, or with tags, fused parts or gaps limits assumed: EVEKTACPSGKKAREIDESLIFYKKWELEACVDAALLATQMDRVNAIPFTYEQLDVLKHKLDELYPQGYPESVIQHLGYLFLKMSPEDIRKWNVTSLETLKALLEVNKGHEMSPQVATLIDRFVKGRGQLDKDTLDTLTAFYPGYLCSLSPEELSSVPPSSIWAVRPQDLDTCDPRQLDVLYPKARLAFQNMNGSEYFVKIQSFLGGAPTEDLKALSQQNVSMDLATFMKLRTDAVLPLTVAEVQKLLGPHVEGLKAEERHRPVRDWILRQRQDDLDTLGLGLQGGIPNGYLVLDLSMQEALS

B1: CAR Construct No. 9, hu15B6 scFv (huVL1-lin-huVH1) (other)
chain: MQAVVTQEPSLTVSPGGTVTLTCASSTGAVTTGNYPNWFQEKPGQAFRGLIAGTNNRAPWVPARFSGSLIGDKAALTLSGVQPEDEAEYFCALWFSSHWVFGGGTKLTVLGGGGSGGGGSGGGGSEVQLVQSGAEVKKPGASVKVSCKASGYSFTGYYMHWVRQAPGQGLEWIGRINPYTGVPSYKHKFQGRVTLTVDKSTSTAYMELSSLRSEDTAVYYCARELGGYWGQGTTVTVSSTSTTTPAPRPPTPAPTIASQPLSLRPEACRPAAGGAVHTRGLDFACDIYIWAPLAGTCGVLLLSLVITKRGRKKLLYIFKQPFMRPVQTTQEEDGCSCRFPEEEEGGCELRVKFSRSADAPAYQQGQNQLYNELNLGRREEYDVLDKRRGRDPEMGGKPRRKNPQEGLYNELQKDKMAEAYSEIGMKGERRRGKGHDGLYQGLSTATKDTYDALHMQALPPR
notes: Chimeric antigen receptor on 293T cells; also called L1H1
B2: CAR Construct No. 10, hu15B6 scFv (huVL1-lin-huVH2) (other)
chain: B1 chain with E126Q, I173M, L195M
notes: Chimeric antigen receptor on 293T cells; also called L1H2
B3: CAR Construct No. 11, hu15B6 scFv (huVL2-lin-huVH1) (other)
chain: B1 chain with E41Q, R57K, P59S, V61T, I70L, F90Y
notes: Chimeric antigen receptor on 293T cells; also called L2H1
B4: CAR Construct No. 12, hu15B6 scFv (huVL2-lin-huVH2) (other)
chain: B1 chain with E41Q, R57K, P59S, V61T, I70L, F90Y, E126Q, I173M, L195M
notes: Chimeric antigen receptor on 293T cells; also called L2H2
B5: CAR Construct No. 1, 15B6 scFv (Vl-lin-Vh) (other)
chain: MQAVVTQESALTTSPGETVTLTCRSSTGAVTTGNYPNWVQEKPDHLFTGLIAGTNNRAPGVPARFSGSLIGDKAALTITGAQTEDEAIYFCALWFSSHWVFGGGTKLTVLGGGGSGGGGSGGGGSEVQLQQSGPVLVKPGASVKISCKASGYSFTGYYMHWVRQSLVKRLEWIGRINPYTGVPSYKHNFKDKASLTVDKSSSTAYMELHSLTSEDSAVYYCARELGGYWGQGTTLTVSSTSTTTPAPRPPTPAPTIASQPLSLRPEACRPAAGGAVHTRGLDFACDIYIWAPLAGTCGVLLLSLVITKRGRKKLLYIFKQPFMRPVQTTQEEDGCSCRFPEEEEGGCELRVKFSRSADAPAYQQGQNQLYNELNLGRREEYDVLDKRRGRDPEMGGKPRRKNPQEGLYNELQKDKMAEAYSEIGMKGERRRGKGHDGLYQGLSTATKDTYDALHMQALPPR
notes: Chimeric antigen receptor (scFv, CD8 hinge, CD8 TM, 4-1BB, CD3 zeta) on 293T cells or T cells; also called 15B6 CAR; 15B6 CAR-T cells

Assays:
[1] = biological target: T1, full length Fc-mesothelin (UniProt Q13421 296-598, limits assumed); assay: mesothelin binding assay as in Example 7: Fc-mesothelin on 293T cells with the CAR vector, flow cytometry (column: Expressed by 293T cells?)
T1 construct: it is written here as in the name; also called Fc-MSLN; full length mesothelin attached to an Fc protein; not shown: Fc protein
Experimental: (§1) 293T cells were independently transduced with the CAR-T vectors. Expression of each Fv by the 293T cells was tested. The CAR-T vectors were transfected into 293T cells. After two days of culture, Fc-mesothelin was bound to the cells. The bound Fc protein was detected by a secondary anti-Fc-antibody conjugated to a fluorescent dye using flow cytometry.
293T cells were independently transduced with the CAR-T vectors. Expression of the Fv by the 293T cells was tested by a mesothelin binding assay, as described in Example 7.

[2] = biological target: T1, full length Fc-mesothelin; assay: flow cytometry: Fc-mesothelin bound to 293T cells transfected with the CAR vector, detected with fluorescent anti-Fc antibody (column: Expressed by 293T cells?)
Experimental: as §1

| Binder | binding result [1] | binding result [2] |
| --- | --- | --- |
| B1 | binds |  |
| B2 | binds |  |
| B3 | binds |  |
| B4 | binds |  |
| B5 |  | binds |
